The source of these data is the supplement of paper PMC10849652.

Chains of the proteins cited; added tags and fusions are not shown. Lines headed by an entry give the natural chain unless they say otherwise; changes in a name come on top.
UniProt Q13490, whole entry, looked up: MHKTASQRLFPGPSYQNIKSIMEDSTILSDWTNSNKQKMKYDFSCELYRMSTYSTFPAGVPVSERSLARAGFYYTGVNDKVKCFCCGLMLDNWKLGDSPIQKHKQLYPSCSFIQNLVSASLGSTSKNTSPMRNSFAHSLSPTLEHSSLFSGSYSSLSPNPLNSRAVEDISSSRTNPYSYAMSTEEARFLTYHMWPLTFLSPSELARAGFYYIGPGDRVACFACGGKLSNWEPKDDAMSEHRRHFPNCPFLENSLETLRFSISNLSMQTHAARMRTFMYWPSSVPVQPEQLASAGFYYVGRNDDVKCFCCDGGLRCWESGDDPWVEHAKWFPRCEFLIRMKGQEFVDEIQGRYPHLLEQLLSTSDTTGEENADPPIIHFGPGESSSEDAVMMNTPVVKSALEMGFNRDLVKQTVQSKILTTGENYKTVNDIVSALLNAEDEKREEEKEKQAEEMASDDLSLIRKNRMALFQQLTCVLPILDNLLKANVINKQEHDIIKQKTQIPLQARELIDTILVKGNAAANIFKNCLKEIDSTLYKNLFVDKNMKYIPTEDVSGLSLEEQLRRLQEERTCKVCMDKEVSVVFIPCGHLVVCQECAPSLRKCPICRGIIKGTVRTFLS
UniProt Q7KYR7: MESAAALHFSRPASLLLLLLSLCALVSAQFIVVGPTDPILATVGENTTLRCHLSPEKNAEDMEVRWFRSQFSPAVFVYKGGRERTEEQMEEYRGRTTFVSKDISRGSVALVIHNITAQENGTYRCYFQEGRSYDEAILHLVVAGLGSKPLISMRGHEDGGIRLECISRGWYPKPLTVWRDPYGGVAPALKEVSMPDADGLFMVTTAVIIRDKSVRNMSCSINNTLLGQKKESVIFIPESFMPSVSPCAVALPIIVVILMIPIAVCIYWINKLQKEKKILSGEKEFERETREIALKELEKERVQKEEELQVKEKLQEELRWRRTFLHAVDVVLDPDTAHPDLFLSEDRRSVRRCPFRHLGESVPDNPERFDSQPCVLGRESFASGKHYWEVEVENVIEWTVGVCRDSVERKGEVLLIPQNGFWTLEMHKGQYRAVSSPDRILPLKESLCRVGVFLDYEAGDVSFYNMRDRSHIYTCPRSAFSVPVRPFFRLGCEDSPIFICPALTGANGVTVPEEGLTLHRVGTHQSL
UniProt O95861: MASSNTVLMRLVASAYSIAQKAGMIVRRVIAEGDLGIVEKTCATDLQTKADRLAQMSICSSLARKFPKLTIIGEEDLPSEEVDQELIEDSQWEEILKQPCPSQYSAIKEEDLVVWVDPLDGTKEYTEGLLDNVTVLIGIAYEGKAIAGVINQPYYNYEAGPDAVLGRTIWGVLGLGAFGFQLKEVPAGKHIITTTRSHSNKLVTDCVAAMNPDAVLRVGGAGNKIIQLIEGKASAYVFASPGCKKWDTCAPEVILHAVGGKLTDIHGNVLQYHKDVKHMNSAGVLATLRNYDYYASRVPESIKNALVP
UniProt Q96KE9: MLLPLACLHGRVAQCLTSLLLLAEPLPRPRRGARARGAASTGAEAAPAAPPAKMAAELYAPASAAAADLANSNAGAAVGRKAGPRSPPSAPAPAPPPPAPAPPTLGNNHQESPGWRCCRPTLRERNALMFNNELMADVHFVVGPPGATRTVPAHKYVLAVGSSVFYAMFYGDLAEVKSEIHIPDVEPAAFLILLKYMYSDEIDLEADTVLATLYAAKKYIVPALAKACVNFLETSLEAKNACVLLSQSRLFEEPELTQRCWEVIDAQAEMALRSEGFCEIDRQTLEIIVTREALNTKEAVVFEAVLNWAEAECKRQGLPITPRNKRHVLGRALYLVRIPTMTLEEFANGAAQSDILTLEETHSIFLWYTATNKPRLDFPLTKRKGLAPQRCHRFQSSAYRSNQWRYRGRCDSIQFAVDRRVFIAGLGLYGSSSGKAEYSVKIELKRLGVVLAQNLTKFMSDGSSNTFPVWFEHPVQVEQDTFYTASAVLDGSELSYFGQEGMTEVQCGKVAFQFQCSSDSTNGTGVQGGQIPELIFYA
UniProt O95817, whole entry, looked up: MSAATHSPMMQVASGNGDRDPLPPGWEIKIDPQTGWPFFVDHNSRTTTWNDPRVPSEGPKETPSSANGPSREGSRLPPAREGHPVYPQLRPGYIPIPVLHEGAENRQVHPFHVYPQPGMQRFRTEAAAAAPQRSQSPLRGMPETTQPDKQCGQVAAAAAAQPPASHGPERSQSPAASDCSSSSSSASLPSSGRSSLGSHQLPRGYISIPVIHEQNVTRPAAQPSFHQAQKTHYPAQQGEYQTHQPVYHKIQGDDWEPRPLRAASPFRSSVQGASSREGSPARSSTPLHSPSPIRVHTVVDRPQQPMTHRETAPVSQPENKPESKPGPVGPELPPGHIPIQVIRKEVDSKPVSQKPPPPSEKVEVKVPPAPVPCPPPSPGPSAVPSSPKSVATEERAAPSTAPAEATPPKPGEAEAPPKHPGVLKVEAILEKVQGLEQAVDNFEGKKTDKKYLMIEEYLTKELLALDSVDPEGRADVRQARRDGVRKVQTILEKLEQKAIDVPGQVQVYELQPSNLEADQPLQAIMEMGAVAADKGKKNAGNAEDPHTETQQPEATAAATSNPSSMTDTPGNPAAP
UniProt P46736, whole entry, looked up: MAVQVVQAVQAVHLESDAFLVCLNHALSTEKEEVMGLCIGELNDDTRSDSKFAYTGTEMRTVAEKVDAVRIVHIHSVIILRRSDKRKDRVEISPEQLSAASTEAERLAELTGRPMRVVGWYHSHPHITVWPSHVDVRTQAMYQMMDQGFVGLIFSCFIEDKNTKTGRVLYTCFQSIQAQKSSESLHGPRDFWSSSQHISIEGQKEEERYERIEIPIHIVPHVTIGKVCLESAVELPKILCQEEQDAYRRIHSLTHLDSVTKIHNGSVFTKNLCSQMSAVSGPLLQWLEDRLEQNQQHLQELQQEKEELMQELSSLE
UniProt Q9NW68: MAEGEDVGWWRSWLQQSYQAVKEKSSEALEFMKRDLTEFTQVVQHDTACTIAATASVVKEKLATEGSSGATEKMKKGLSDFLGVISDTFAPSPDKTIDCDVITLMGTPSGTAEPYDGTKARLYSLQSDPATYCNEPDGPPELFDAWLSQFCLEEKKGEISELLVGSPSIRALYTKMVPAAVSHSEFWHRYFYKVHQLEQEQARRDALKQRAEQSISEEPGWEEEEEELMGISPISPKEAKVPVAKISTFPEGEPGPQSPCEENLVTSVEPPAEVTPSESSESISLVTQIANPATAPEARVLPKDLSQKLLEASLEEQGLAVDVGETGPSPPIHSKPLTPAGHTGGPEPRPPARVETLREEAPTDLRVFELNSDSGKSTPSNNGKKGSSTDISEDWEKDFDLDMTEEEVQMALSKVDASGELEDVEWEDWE
UniProt Q06187: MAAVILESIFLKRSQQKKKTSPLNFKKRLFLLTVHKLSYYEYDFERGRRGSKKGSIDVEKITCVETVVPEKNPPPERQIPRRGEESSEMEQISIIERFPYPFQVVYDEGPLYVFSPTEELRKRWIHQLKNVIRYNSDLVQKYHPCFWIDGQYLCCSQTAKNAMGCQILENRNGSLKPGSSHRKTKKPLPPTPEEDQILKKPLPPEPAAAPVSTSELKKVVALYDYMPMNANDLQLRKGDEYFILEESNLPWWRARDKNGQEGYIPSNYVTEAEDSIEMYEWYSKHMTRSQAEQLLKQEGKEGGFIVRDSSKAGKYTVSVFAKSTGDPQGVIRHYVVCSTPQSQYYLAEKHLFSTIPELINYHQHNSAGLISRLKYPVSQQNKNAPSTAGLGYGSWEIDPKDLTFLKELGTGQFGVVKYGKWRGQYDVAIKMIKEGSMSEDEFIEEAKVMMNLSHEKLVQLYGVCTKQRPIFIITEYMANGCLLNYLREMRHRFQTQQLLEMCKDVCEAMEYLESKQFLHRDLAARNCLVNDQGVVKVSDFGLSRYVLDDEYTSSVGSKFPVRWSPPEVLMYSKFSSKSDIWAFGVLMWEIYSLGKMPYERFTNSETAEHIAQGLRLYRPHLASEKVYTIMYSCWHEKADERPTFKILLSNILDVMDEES
UniProt Q9UHQ4: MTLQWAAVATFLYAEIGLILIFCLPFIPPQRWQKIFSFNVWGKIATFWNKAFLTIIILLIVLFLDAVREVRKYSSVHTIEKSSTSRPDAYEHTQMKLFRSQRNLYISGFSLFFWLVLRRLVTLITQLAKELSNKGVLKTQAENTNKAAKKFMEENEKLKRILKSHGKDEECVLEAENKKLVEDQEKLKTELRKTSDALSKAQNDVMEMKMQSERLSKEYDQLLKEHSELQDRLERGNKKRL
UniProt Q9P287, whole entry, looked up: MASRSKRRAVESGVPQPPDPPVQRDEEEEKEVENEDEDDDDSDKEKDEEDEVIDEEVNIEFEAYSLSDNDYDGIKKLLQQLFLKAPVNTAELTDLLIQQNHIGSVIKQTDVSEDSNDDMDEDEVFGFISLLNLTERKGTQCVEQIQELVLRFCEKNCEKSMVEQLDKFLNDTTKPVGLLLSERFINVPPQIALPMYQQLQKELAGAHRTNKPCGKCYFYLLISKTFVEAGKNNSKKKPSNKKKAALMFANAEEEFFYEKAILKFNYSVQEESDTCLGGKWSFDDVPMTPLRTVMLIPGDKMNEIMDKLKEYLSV
UniProt Q6QNY0: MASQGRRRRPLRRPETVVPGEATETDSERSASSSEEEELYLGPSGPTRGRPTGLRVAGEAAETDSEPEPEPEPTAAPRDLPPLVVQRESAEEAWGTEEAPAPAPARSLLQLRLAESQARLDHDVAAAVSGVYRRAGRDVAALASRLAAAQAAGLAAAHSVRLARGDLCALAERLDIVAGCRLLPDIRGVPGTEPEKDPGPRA
UniProt P38398, whole entry, looked up: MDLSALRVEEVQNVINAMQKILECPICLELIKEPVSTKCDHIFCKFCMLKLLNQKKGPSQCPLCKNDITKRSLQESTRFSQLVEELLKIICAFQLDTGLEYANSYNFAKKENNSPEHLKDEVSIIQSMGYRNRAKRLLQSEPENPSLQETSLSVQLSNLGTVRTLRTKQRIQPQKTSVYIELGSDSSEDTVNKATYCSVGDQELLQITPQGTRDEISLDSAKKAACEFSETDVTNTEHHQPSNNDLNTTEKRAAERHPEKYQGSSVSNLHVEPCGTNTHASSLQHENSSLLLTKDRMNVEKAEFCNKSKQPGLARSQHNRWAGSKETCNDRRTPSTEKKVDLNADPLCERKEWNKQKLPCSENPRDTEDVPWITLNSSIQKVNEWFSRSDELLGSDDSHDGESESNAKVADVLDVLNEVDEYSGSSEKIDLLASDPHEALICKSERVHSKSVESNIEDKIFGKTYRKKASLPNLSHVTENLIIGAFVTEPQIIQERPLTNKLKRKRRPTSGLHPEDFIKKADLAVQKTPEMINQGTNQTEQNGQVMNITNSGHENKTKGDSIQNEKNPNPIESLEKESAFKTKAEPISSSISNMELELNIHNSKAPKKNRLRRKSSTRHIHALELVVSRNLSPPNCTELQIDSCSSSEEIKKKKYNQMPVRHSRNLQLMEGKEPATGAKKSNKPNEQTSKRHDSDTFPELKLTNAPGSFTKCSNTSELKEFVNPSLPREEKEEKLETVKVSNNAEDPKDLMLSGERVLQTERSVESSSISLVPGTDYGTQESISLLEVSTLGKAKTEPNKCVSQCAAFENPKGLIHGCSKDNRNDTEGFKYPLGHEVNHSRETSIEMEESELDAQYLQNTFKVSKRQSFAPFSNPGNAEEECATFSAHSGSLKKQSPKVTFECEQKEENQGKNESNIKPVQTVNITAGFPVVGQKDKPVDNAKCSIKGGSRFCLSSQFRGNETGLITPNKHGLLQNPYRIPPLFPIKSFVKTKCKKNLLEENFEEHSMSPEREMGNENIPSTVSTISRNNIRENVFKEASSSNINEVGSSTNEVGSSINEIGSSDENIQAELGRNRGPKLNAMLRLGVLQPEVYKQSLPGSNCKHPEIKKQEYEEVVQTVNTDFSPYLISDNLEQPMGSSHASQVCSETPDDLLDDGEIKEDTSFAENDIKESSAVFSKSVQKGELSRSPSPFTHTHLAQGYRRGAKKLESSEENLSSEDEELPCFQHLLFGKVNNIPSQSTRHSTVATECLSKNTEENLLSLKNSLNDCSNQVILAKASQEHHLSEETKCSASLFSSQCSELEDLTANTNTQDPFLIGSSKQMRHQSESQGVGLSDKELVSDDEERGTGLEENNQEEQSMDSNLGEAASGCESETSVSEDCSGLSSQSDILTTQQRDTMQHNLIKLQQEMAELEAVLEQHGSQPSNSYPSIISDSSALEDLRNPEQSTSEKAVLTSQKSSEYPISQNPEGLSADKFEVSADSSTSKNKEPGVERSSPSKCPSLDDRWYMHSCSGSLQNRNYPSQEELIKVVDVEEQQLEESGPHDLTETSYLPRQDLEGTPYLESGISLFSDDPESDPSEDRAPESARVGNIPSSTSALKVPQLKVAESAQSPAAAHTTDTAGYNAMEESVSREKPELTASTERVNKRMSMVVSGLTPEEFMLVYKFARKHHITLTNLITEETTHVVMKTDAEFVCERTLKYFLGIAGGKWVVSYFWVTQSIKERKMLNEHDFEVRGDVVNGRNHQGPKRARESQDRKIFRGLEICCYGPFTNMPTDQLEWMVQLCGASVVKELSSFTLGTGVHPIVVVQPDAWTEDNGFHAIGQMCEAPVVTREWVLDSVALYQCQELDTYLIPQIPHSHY

The list shows a part of the results.

Compound in one test: COC(=O)N[C@@H](C)CNc1nccc(-c2cn(C(C)C)nc2-c2cc(Cl)cc(NS(C)(=O)=O)c2F)n1 [encorafenib]
Nature of the test: log2 fold change, soluble protein after heating vs DMSO (PISA); higher = thermal stabilisation; K562 lysate, 10 uM; active = over 0.2 and 3.5 SD of the protein, either way, in both replicates (recomputed). The method in brief: (§1)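 Dounce homogenisation of K562 pellets in PBS pH 7.4 with 1 mM MgCl2 produced a crude extract, used at 1 mg/mL protein. Exposure to 10 μM compound lasted 30 min, and aliquots were then heated for 3 min across 48°C-58°C, pooled and brought to 0.5% NP-40 at 4°C. The supernatant after 21,000xg for 90 min was quantified by TMTpro 16plex LC-MS/MS with channel sums equalised. Duplicate values are given as log-two fold change in thermal stability relative to solvent controls.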
Turning to BIRC2 (UniProt Q13490), the log2 fold change was inactive: -0.021.

Regarding BTN2A1 (UniProt Q7KYR7), the log2 fold change was inactive: 0.039.

As for BAIAP2L1 (UniProt Q9UHR4), the log2 fold change is inactive: 0.026.

Consider BIRC6 (UniProt Q9NR09), for which the log2 fold change is inactive: 0.01.

For the target BACH1 (UniProt O14867), the log2 fold change was inactive: -0.009.

On to BPNT1 (UniProt O95861), for which the log2 fold change is inactive: -0.058.

Turning to BTBD6 (UniProt Q96KE9), the log2 fold change is inactive: -0.104.

Turning to BAG3 (UniProt O95817), the log2 fold change is inactive: 0.003.

For BRCC3 (UniProt P46736), the log2 fold change is inactive: 0.029.

Take BRIX1 (UniProt Q8TDN6): the log2 fold change was inactive: 0.027.

Take BNIP1 (UniProt Q12981): the log2 fold change is inactive: 0.095.

In the case of BCAS2 (UniProt O75934), the log2 fold change is inactive: 0.032.

On to BSDC1 (UniProt Q9NW68), for which the log2 fold change was inactive: 0.112.

BLVRB (UniProt P30043): the log2 fold change is inactive: -0.001.

As to BPTF (UniProt Q12830), the log2 fold change is inactive: 0.039.

Turning to BPHL (UniProt Q86WA6), the log2 fold change is inactive: -0.002.

Regarding BCL10 (UniProt O95999), the log2 fold change is inactive: 0.037.

For BAD (UniProt Q92934), the log2 fold change was inactive: 0.022.

In the case of BROX (UniProt Q5VW32), the log2 fold change is inactive: -0.061.

With BTK isoform 2 (UniProt Q06187), the log2 fold change was inactive: -0.033.

As for BCAP29 isoform 2 (UniProt Q9UHQ4), the log2 fold change was inactive: 0.018.

For the target BCKDK (UniProt O14874), the log2 fold change is inactive: -0.061.

On to BCCIP isoform 2 (UniProt Q9P287), for which the log2 fold change is inactive: 0.024.

As to BCR (UniProt P11274), the log2 fold change is inactive: 0.036.

On to BAG4 (UniProt O95429), for which the log2 fold change was inactive: -0.032.

Take BLOC1S3 (UniProt Q6QNY0): the log2 fold change was inactive: -0.011.

Regarding BRCA1 isoform 7 (UniProt P38398), the log2 fold change was inactive: 0.073.

Consider BRIP1 (UniProt Q9BX63), for which the log2 fold change is inactive: 0.02.

Take BAG2 (UniProt O95816): the log2 fold change is inactive: -0.005.

With BCORL1 isoform 3 (UniProt Q5H9F3), the log2 fold change is inactive: 0.022.

Turning to BRK1 isoform 2 (UniProt Q8WUW1), the log2 fold change is inactive: -0.009.

Compound in another test: COC(=O)[C@H](CCSC)NC(=O)C1=C(C=C(C=C1)NC[C@H](CS)N)C2=CC=CC=C2
Described as above. The method in brief: as §1
Consider BIRC2 (UniProt Q13490), for which the log2 fold change is inactive: -0.097.

As to BTN2A1 (UniProt Q7KYR7), the log2 fold change was inactive: -0.004.

In the case of BAIAP2L1 (UniProt Q9UHR4), the log2 fold change is inactive: 0.005.

As to BIRC6 (UniProt Q9NR09), the log2 fold change is inactive: -0.03.

Take BACH1 (UniProt O14867): the log2 fold change was inactive: -0.006.

As to BPNT1 (UniProt O95861), the log2 fold change was inactive: -0.033.

For the target BTBD6 (UniProt Q96KE9), the log2 fold change was inactive: 0.05.

Take BAG3 (UniProt O95817): the log2 fold change is inactive: -0.018.

Regarding BRCC3 (UniProt P46736), the log2 fold change was inactive: 0.005.

As for BRIX1 (UniProt Q8TDN6), the log2 fold change is inactive: -0.039.

As to BNIP1 (UniProt Q12981), the log2 fold change was inactive: -0.037.

Turning to BCAS2 (UniProt O75934), the log2 fold change was inactive: -0.061.

For BSDC1 (UniProt Q9NW68), the log2 fold change was inactive: -0.149.

In the case of BLVRB (UniProt P30043), the log2 fold change is inactive: 0.011.

For the target BPTF (UniProt Q12830), the log2 fold change was inactive: 0.091.

For the target BPHL (UniProt Q86WA6), the log2 fold change is inactive: 0.004.

Regarding BCL10 (UniProt O95999), the log2 fold change was inactive: -0.057.

For the target BAD (UniProt Q92934), the log2 fold change was inactive: 0.024.

For the target BROX (UniProt Q5VW32), the log2 fold change was inactive: -0.035.

Take BTK isoform 2 (UniProt Q06187): the log2 fold change is inactive: 0.051.

BCAP29 isoform 2 (UniProt Q9UHQ4): the log2 fold change is inactive: -0.002.

Consider BCKDK (UniProt O14874), for which the log2 fold change was inactive: 0.066.

Take BCCIP isoform 2 (UniProt Q9P287): the log2 fold change is inactive: -0.024.

As for BCR (UniProt P11274), the log2 fold change is inactive: 0.085.

With BAG4 (UniProt O95429), the log2 fold change was inactive: 0.005.

On to BLOC1S3 (UniProt Q6QNY0), for which the log2 fold change was inactive: 0.038.

BRCA1 isoform 7 (UniProt P38398): the log2 fold change is inactive: 0.095.

As for BRIP1 (UniProt Q9BX63), the log2 fold change was inactive: 0.046.

Regarding BAG2 (UniProt O95816), the log2 fold change was inactive: -0.101.

Regarding BCORL1 isoform 3 (UniProt Q5H9F3), the log2 fold change is inactive: 0.021.

With BRK1 isoform 2 (UniProt Q8WUW1), the log2 fold change was inactive: -0.016.

Compound in another test: COc1cc(Nc2ncc3c(n2)-c2ccc(Cl)cc2C(c2c(F)cccc2OC)=NC3)ccc1C(=O)O [alisertib]
The description is as above. The method in brief: as §1
For BIRC2 (UniProt Q13490), the log2 fold change was inactive: 0.017.

For BTN2A1 (UniProt Q7KYR7), the log2 fold change is inactive: 0.018.

Regarding BAIAP2L1 (UniProt Q9UHR4), the log2 fold change was inactive: 0.01.

BIRC6 (UniProt Q9NR09): the log2 fold change is inactive: 0.009.

For the target BACH1 (UniProt O14867), the log2 fold change was inactive: -0.056.

As for BPNT1 (UniProt O95861), the log2 fold change was inactive: 0.017.

In the case of BTBD6 (UniProt Q96KE9), the log2 fold change is inactive: 0.073.

On to BAG3 (UniProt O95817), for which the log2 fold change was inactive: 0.016.

As to BRCC3 (UniProt P46736), the log2 fold change was inactive: 0.003.

Consider BRIX1 (UniProt Q8TDN6), for which the log2 fold change is inactive: -0.002.

For the target BNIP1 (UniProt Q12981), the log2 fold change was inactive: 0.004.

For the target BCAS2 (UniProt O75934), the log2 fold change is inactive: -0.011.

For the target BSDC1 (UniProt Q9NW68), the log2 fold change was inactive: 0.026.

Regarding BLVRB (UniProt P30043), the log2 fold change is inactive: -0.003.

In the case of BPTF (UniProt Q12830), the log2 fold change is inactive: 0.033.

Consider BPHL (UniProt Q86WA6), for which the log2 fold change is inactive: 0.085.

In the case of BCL10 (UniProt O95999), the log2 fold change is inactive: 0.002.

In the case of BROX (UniProt Q5VW32), the log2 fold change is inactive: 0.016.

As to BTK isoform 2 (UniProt Q06187), the log2 fold change is inactive: -0.012.

For BCAP29 isoform 2 (UniProt Q9UHQ4), the log2 fold change is inactive: 0.021.

For the target BCKDK (UniProt O14874), the log2 fold change is inactive: 0.023.

Regarding BCCIP isoform 2 (UniProt Q9P287), the log2 fold change was inactive: 0.009.

For BCR (UniProt P11274), the log2 fold change is inactive: -0.008.

BAG4 (UniProt O95429): the log2 fold change is inactive: -0.023.

For BLOC1S3 (UniProt Q6QNY0), the log2 fold change is inactive: -0.018.

In the case of BRCA1 isoform 7 (UniProt P38398), the log2 fold change is inactive: -0.123.

Take BRIP1 (UniProt Q9BX63): the log2 fold change is inactive: 0.072.

Turning to BAG2 (UniProt O95816), the log2 fold change was inactive: -0.006.

As to BRK1 isoform 2 (UniProt Q8WUW1), the log2 fold change was inactive: 0.003.
